According to article PMC9237076:
Results are given in words; binding and its absence hold for the method and conditions named. In cells and extracts the contact can be indirect. Some results given as binding are weak or reduced against the parent protein; the word gives no strength. For part of these data: Tags and fused reporters may be left off the sequences shown.

The chains behind the UniProt entries cited, without tags or fusion partners.
UniProt P05549: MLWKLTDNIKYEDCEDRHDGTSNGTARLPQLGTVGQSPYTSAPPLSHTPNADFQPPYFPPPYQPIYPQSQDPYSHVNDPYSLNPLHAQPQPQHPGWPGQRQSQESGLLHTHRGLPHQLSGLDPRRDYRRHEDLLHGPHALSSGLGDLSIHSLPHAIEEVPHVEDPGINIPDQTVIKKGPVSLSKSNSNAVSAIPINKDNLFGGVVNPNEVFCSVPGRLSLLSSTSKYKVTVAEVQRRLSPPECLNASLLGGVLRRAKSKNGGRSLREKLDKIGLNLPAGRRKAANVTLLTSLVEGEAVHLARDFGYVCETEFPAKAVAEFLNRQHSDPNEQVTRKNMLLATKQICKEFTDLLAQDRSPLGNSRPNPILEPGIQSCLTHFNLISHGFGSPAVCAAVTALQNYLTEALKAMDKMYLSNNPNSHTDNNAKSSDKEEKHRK

How the values were obtained:
[1] = target: T1, c-myc-tagged CIITA (major histocompatibility complex class II transactivator), in osteocytes (UniProt P33076); assay: co-IP; osteocytes transfected with c-myc-CIITA plasmid; lysate immunoprecipitated, immunoblot
T1 sequence: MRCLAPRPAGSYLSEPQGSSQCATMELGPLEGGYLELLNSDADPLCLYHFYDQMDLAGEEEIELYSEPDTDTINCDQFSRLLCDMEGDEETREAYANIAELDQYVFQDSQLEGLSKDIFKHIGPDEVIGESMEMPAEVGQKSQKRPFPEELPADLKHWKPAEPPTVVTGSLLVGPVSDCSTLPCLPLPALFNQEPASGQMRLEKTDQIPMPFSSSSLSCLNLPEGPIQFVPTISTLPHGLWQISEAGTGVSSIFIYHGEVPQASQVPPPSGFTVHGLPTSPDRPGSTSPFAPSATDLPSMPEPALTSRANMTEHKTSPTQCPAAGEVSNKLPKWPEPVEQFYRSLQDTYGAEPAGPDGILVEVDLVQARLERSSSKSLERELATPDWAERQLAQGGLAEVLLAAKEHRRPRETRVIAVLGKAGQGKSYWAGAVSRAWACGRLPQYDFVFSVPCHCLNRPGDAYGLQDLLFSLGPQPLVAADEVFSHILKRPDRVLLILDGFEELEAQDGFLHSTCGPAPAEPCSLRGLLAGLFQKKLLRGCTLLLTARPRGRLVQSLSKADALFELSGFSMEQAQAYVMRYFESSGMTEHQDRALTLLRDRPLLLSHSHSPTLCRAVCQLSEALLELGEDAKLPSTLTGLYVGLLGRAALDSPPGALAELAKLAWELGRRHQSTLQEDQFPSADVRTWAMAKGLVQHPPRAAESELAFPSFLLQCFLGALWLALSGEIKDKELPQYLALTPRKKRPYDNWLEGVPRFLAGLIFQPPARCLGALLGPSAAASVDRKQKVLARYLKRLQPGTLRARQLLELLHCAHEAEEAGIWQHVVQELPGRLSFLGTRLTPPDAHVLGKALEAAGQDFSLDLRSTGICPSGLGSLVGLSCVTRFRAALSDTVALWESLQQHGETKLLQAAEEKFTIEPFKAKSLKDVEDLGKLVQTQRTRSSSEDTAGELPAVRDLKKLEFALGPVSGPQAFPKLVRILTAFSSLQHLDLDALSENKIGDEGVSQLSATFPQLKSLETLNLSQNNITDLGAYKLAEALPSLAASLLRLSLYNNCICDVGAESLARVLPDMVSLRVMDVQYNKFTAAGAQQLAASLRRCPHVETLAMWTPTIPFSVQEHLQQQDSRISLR

[2] = target: T2, c-myc-tagged CIITA (major histocompatibility complex class II transactivator), in HEK293T cells (UniProt P33076); assay: pull-down; c-myc-CIITA from lysate of transfected HEK293T cells held on c-Myc beads, incubated with lysate of HEK293T cells transfected with AP2α; immunoblot
T2 sequence: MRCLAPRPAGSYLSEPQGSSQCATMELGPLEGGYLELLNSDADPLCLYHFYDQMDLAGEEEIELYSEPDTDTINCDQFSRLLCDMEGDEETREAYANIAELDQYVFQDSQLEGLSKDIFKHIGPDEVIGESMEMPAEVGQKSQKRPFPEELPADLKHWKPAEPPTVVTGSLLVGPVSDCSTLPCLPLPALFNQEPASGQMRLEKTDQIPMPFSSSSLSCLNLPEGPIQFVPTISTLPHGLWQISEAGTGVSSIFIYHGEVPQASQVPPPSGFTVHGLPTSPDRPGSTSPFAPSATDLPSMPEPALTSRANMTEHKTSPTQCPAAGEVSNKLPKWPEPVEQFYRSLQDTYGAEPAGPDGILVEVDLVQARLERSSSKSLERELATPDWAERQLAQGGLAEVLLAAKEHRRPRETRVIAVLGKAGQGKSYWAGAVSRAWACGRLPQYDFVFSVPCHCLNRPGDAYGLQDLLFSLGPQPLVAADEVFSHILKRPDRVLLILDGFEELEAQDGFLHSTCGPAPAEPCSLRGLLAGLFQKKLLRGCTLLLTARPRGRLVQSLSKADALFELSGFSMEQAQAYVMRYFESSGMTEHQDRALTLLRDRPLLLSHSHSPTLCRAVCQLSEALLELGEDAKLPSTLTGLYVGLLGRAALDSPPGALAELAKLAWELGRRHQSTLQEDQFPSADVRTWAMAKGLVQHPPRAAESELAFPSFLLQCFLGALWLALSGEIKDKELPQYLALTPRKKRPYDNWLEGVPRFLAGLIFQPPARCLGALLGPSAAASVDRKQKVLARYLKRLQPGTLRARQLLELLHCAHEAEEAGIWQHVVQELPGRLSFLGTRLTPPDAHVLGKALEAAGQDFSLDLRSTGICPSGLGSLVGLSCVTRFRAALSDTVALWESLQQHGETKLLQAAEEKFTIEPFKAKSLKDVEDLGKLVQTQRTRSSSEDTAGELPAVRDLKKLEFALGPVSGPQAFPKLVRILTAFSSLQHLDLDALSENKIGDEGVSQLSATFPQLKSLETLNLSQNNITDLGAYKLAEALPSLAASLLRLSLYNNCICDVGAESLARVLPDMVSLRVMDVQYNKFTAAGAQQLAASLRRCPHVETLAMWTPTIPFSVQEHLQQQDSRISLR

[3] = target: T3, phosphorylated STAT1 (mouse (endogenous in MLO-Y4 and MLO-A5)), P42225; assay: co-IP; lysates of MLO-Y4 and MLO-A5 osteocytes cultured with 2DDR, immunoprecipitated with an anti-phosphorylated STAT1 antibody (agarose-immobilized, 4 °C overnight), blotted for IRF1; conditions: remark: other sources report otherwise
T3 chain: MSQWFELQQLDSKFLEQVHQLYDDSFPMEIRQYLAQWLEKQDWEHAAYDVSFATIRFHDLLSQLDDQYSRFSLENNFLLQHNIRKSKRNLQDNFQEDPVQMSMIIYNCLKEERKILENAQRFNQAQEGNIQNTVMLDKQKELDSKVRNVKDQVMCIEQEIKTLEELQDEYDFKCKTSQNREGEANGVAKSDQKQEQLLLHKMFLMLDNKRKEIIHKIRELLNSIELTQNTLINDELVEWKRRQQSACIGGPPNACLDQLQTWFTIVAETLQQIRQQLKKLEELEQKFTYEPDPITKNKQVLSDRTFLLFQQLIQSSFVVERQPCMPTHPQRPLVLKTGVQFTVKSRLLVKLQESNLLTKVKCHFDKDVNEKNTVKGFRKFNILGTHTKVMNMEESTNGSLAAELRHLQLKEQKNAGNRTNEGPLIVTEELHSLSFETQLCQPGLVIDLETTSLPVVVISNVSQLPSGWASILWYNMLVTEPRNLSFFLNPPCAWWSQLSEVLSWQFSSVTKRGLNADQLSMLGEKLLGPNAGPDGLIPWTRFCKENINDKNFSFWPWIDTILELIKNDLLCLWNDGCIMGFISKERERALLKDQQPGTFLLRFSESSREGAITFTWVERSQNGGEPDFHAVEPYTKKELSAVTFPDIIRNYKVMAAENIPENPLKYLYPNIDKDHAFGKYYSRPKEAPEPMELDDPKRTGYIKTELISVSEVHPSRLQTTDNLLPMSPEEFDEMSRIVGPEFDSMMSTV

transcriptional factor AP2α, in osteocytes transfected with c-myc-CIITA (from UniProt P05549 1-437)
binding [1]: binds

AP2α expressed in HEK293T cells (from UniProt P05549 1-437)
binding [2]: binds

B1: interferon regulatory factor 1, P15314 1-329 (protein)
chain: MPITRMRMRPWLEMQINSNQIPGLIWINKEEMIFQIPWKHAAKHGWDINKDACLFRSWAIHTGRYKAGEKEPDPKTWKANFRCAMNSLPDIEEVKDQSRNKGSSAVRVYRMLPPLTRNQRKERKSKSSRDTKSKTKRKLCGDVSPDTFSDGLSSSTLPDDHSSYTTQGYLGQDLDMERDITPALSPCVVSSSLSEWHMQMDIIPDSTTDLYNLQVSPMPSTSEAATDEDEEGKIAEDLMKLFEQSEWQPTHIDGKGYLLNEPGTQLSSVYGDFSCKEEPEIDSPRGDIGIGIQHVFTEMKNMDSIMWMDSLLGNSVRLPPSIQAIPCAP
modifications: here or on the partner: phosphotyrosine at 701 (as named for the antibody: Phospho-STAT1 (Tyr701))
binding [3]: binds
